Results are given in words; binding and its absence hold for the method and conditions named. In cells and extracts the contact can be indirect. A yes stands for co-enrichment or nearness to the bait. Other partners may have been found.
Molecular target: full-length ZNF746 fused to TurboID (human) (UniProt Q6NUN9)
Experiment: proximity labelling

By UniProt entry, the sequences of proteins in these tests, tags left out.
UniProt Q6NUN9: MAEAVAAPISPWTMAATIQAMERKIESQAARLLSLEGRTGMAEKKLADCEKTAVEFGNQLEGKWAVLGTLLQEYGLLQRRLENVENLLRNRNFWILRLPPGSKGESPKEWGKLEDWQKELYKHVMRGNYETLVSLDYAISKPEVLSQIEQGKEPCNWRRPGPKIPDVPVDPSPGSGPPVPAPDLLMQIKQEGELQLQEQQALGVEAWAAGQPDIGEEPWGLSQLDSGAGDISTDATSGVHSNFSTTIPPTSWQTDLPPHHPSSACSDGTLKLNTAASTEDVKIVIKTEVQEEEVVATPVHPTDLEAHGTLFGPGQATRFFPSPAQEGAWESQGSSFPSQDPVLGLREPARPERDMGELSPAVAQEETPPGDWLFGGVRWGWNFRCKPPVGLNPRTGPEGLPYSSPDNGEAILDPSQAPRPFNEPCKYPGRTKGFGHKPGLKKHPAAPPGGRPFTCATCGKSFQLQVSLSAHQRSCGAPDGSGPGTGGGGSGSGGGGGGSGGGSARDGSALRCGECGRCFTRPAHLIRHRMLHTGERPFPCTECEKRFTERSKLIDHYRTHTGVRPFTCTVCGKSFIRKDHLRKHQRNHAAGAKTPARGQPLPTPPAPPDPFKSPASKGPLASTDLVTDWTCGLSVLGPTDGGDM
UniProt Q9UDV7: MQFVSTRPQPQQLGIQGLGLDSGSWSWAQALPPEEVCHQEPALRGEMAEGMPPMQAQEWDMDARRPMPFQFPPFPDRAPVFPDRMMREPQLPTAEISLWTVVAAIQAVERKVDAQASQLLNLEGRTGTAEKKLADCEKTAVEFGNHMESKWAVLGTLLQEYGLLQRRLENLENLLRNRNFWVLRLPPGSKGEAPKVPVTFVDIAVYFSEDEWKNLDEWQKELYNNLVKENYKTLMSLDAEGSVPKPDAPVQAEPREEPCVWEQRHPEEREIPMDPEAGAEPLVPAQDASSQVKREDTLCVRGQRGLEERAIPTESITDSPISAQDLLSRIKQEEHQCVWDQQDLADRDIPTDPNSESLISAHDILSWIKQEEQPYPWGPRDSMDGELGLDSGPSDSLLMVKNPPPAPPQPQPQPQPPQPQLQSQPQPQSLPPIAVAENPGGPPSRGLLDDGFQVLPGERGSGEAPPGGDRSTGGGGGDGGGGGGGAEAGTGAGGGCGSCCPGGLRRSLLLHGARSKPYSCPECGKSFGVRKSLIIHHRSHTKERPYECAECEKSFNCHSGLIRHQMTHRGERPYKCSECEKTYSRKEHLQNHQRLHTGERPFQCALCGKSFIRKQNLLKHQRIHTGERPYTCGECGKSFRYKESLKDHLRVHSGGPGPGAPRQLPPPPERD
UniProt Q9ULD5: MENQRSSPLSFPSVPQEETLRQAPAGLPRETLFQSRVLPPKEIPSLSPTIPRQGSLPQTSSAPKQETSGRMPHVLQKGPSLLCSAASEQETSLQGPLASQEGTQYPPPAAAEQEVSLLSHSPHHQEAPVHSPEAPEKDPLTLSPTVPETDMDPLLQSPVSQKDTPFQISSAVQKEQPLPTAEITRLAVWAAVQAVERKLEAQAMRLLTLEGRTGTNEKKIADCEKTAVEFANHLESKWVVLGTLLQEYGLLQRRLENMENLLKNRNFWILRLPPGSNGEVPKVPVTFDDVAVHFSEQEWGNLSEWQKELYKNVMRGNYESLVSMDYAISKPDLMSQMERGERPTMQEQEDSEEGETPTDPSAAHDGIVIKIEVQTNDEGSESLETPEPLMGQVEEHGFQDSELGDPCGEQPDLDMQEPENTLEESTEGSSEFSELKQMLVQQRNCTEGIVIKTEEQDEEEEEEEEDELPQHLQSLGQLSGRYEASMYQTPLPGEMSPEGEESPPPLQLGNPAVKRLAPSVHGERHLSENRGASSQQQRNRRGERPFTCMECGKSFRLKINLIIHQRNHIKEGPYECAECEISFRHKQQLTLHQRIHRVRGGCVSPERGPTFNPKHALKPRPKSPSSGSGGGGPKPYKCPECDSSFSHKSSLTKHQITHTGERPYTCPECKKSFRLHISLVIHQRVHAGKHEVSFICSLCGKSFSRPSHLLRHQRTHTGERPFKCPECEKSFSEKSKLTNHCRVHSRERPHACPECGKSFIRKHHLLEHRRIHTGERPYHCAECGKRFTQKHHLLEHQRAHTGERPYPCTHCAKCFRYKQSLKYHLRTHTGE

Substance | binding
ZNF282 (from UniProt Q9UDV7 1-671) | binds
ZNF777 (from UniProt Q9ULD5 1-831) | binds
